{"source": "PubChem BioAssay AID1508597, Cure First – 2020", "test": "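Survival screen with siRNA in ovarian cancer cells derived from patients, with or without rucaparib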 (primary screen)", "cell system": "human ovarian carcinoma lines grown from tumours: OCI-P5x (papillary serous) and OCI-C5x (clear cell)", "knock-down reagent": "siRNA pool against human genes, 1.25 pmol siRNA per well", "time to read-out": "72 h or 96 h, depending on the cell culture", "challenge": "rucaparib 20 µM (about IC30) or vehicle, present until read-out", "rucaparib or vehicle": "Rucaparib", "cell line": "OCI-C5x (clear cell)", "measurement": "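ATP luminescence measured at 72 or 96 h according to the culture, then normalised and expressed as percent viability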", "direction": "viability, normalised: higher = more viable cells remaining", "rule for the call": "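a well counts as a hit if its normalised viability is under 80 percent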", "calls": "active = viability under 80%; inactive = viability 80% or more", "note": "Shown is a random part of the about 2,100 reagents, in one setting of the screen. 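Calls flag viability under 80% in either arm, not effects specific to rucaparib; the reference for percent is not stated.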 Unmarked entries are inactive. Not stated in the record: the 100% reference."}
{"gene knocked down":"ADAM9","technical replicate":"1","viability, normalised (%)":"35 (active)"}
{"gene knocked down":"ADAM9","technical replicate":"2","viability, normalised (%)":"25.9 (active)"}
{"gene knocked down":"ADAM9","technical replicate":"3","viability, normalised (%)":"26.3 (active)"}
{"gene knocked down":"AK2","technical replicate":"1","viability, normalised (%)":"44.9 (active)"}
{"gene knocked down":"AK2","technical replicate":"2","viability, normalised (%)":"50.7 (active)"}
{"gene knocked down":"AK2","technical replicate":"3","viability, normalised (%)":"40.8 (active)"}
{"gene knocked down":"ETF1","technical replicate":"1","viability, normalised (%)":"46.4 (active)"}
{"gene knocked down":"ETF1","technical replicate":"2","viability, normalised (%)":"36.2 (active)"}
{"gene knocked down":"ETF1","technical replicate":"3","viability, normalised (%)":"33.5 (active)"}
{"gene knocked down":"IFIH1","technical replicate":"1","viability, normalised (%)":"56.7 (active)"}
{"gene knocked down":"IFIH1","technical replicate":"2","viability, normalised (%)":"41.2 (active)"}
{"gene knocked down":"IFIH1","technical replicate":"3","viability, normalised (%)":"42.6 (active)"}
{"gene knocked down":"MAP3K19","technical replicate":"1","viability, normalised (%)":"54.6 (active)"}
{"gene knocked down":"MAP3K19","technical replicate":"2","viability, normalised (%)":"63.2 (active)"}
{"gene knocked down":"MAP3K19","technical replicate":"3","viability, normalised (%)":"54.7 (active)"}
{"gene knocked down":"MAST4","technical replicate":"1","viability, normalised (%)":"56.9 (active)"}
{"gene knocked down":"MAST4","technical replicate":"2","viability, normalised (%)":"58.5 (active)"}
{"gene knocked down":"MAST4","technical replicate":"3","viability, normalised (%)":"71.6 (active)"}
{"gene knocked down":"MAD1L1","technical replicate":"1","viability, normalised (%)":"51.1 (active)"}
{"gene knocked down":"MAD1L1","technical replicate":"2","viability, normalised (%)":"29.1 (active)"}
{"gene knocked down":"MAD1L1","technical replicate":"3","viability, normalised (%)":"53.8 (active)"}

A few values from the entries so far:
Value for MAST4, technical replicate 2 under “viability, normalised (%)”: 58.5 (active)
Under “viability, normalised (%)”, ADAM9, technical replicate 1 is entered as 35 (active)
ETF1, technical replicate 2, viability, normalised (%) = 36.2 (active)
Under “viability, normalised (%)”, IFIH1, technical replicate 1 has 56.7 (active)

More records follow:
{"gene knocked down":"PARP9","technical replicate":"1","viability, normalised (%)":"39 (active)"}
{"gene knocked down":"PARP9","technical replicate":"2","viability, normalised (%)":"41.2 (active)"}
{"gene knocked down":"PARP9","technical replicate":"3","viability, normalised (%)":"39 (active)"}
{"gene knocked down":"HAUS7","technical replicate":"1","viability, normalised (%)":"38.5 (active)"}
{"gene knocked down":"HAUS7","technical replicate":"2","viability, normalised (%)":"38.1 (active)"}
{"gene knocked down":"HAUS7","technical replicate":"3","viability, normalised (%)":"41.7 (active)"}
{"gene knocked down":"JAK3","technical replicate":"1","viability, normalised (%)":"57.9 (active)"}
{"gene knocked down":"JAK3","technical replicate":"2","viability, normalised (%)":"73.4 (active)"}
{"gene knocked down":"JAK3","technical replicate":"3","viability, normalised (%)":"63 (active)"}
{"gene knocked down":"LMTK3","technical replicate":"1","viability, normalised (%)":"50.4 (active)"}
{"gene knocked down":"LMTK3","technical replicate":"2","viability, normalised (%)":"61.5 (active)"}
{"gene knocked down":"LMTK3","technical replicate":"3","viability, normalised (%)":"58.9 (active)"}
